# Laboratory results taken from PubChem BioAssay AID602313 (National Center for Advancing Translational Sciences (NCATS), 2012).
# Among all 390,000 compounds or so, about 760 (0.19%) were called active. This list was built around the results that the source calls inconclusive (neither active nor inactive); the mix of calls is not that of the screen. The call rests on the fitted dose curve; in most records, active means well fitted inhibition curve with a large enough effect; inconclusive means small, poorly fitted or top-dose-only effect; inactive means flat fitted curve, though single readings scatter. Potencies of inconclusive entries are doubtful fits and often do not repeat.
# Assay: qHTS for Inhibitors of Vif-A3F Interactions: qHTS; further: nearly all actives have a fitted effect of over 65% in size
# Conditions: HeLa A3F-eYFP + Vif (tagged APOBEC3F with the HIV-1 protein that degrades it), YFP fluorescence increase; series mostly up to 46.1 µM
# How it was run: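 HeLa cells stably expressing A3F-eYFP plus Vif, plated and incubated overnight at 37 deg C, then exposed to compounds overnight at 37 deg C. Blocked degradation read as raised yellow fluorescence (Ex 488/Em 500-530).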
# Potency means the concentration at half of the fitted maximal effect.
row,SMILES,Potency
1,CCOC(=O)c1ccc(/C=C2/C=C(c3ccccc3)N(c3ccc(Cl)c(C(=O)O)c3)C2=O)cc1,active: 12.6 µM
2,Cc1ccc(S(=O)(=O)NN=CC=CC=NNS(=O)(=O)c2ccc(C)cc2)cc1,"inconclusive: 35.5 µM [inhibitor, single point]"
3,CCOC(=O)c1c(C)n(S(=O)(=O)c2ccc(C)cc2)c2ccc(NS(=O)(=O)c3ccc(C)cc3)cc12,inactive
4,Cc1ccc(/C=C2\S/C(=N/S(=O)(=O)c3cccs3)NC2=O)cc1,"inconclusive: 10 µM [inhibitor, partial curve, poor fit]"
5,CN1C(=O)C(O)(CC(=O)c2ccccn2)c2cc(Br)ccc21 (stereo not drawn),"inconclusive: 15.8 µM [inhibitor, single point]"
6,COc1cc(OC)c(OC)cc1/C=C1\Oc2cc(OCC(=O)N3Cc4ccccc4C[C@H]3C(=O)O)ccc2C1=O,"inconclusive: 2.82 µM [inhibitor, full curve, poor fit]"
7,CCc1ccc(N(CC(=O)Nc2nc3ccc(C)cc3s2)S(=O)(=O)c2c(C)noc2C)cc1,"inconclusive: 35.5 µM [inhibitor, single point]"
8,C/C(=N\NC(=O)CNc1cccc(Cl)c1C)c1cccs1,inactive
9,CN1C(=O)/C(=C\c2cc(Br)cs2)c2ccccc21,"inconclusive: 15.8 µM [inhibitor, partial curve, poor fit]"
10,Cc1nnc(N2CCCC(C(=O)Nc3cc(F)ccc3F)C2)c2nn(-c3ccccc3)c(C)c12 (stereo not drawn),"inconclusive: 12.6 µM [inhibitor, partial curve, poor fit]"
11,CCCn1c(SCC(=O)NCc2ccccc2)n[nH]c1=O,"inconclusive: 0.355 µM [inhibitor, full curve, poor fit]"
12,Oc1ccc2nnc3c(Br)cnn3c2c1,inactive
13,Cc1ccc(CNC(=O)c2cccc3c2C(=O)c2ccc(N4CCC(C)CC4)cc2S3(=O)=O)cc1,active: 12.6 µM
14,Cc1[nH]c2ccccc2c1/C=N/NC(=O)c1cccc([N+](=O)[O-])c1,inactive
15,Cc1ccc(C)c(N2CCN(C3CCCC(C)C3)CC2)c1 (stereo not drawn),"inconclusive: 17.8 µM [inhibitor, single point]"
16,CCN(CC)c1cc(NC2CCCCC2)c2c3c(onc13)-c1ccccc1C2=O,"inconclusive: 25.1 µM [inhibitor, single point]"
17,COc1ccc(-c2ccc(-c3nc4c(c(=O)[nH]c(=O)n4Cc4ccccc4)n3C)o2)c([N+](=O)[O-])c1,"inconclusive: 6.31 µM [inhibitor, single point]"
18,Cc1ccc(Oc2cc([N+](=O)[O-])cc3c2C(=O)Nc2ccccc2O3)cc1,"inconclusive: 22.4 µM [inhibitor, single point]"

# Some of these compounds in order of heavy-atom count, ascending:
row,SMILES,Potency
8,C/C(=N\NC(=O)CNc1cccc(Cl)c1C)c1cccs1,inactive
5,CN1C(=O)C(O)(CC(=O)c2ccccn2)c2cc(Br)ccc21 (stereo not drawn),"inconclusive: 15.8 µM [inhibitor, single point]"
10,Cc1nnc(N2CCCC(C(=O)Nc3cc(F)ccc3F)C2)c2nn(-c3ccccc3)c(C)c12 (stereo not drawn),"inconclusive: 12.6 µM [inhibitor, partial curve, poor fit]"
